The text below walks through data of article PMC4875723.

Protein sequences, listed by entry. Tags and fused reporters are not part of them.
UniProt P46937: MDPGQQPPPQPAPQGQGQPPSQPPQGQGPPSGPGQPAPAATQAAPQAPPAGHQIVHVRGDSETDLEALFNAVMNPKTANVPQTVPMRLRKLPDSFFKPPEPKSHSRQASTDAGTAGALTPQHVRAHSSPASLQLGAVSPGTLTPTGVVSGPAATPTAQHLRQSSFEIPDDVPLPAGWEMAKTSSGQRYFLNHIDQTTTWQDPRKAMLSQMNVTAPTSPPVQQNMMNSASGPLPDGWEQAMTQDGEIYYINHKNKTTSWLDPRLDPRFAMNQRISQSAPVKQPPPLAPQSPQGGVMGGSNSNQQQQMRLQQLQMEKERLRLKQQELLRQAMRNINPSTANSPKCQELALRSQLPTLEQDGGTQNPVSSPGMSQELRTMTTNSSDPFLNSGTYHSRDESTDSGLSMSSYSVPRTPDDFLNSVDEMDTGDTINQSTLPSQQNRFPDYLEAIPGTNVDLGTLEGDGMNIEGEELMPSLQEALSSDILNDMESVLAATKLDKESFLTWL
UniProt P31946: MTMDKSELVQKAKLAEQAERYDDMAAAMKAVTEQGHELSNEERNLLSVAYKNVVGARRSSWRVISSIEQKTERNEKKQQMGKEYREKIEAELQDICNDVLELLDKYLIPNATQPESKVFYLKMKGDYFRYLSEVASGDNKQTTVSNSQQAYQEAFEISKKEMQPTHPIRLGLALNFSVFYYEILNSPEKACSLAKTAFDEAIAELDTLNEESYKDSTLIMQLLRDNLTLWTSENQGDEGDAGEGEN

Results are given in words; binding and its absence hold for the method and conditions named. Binding seen in cells or lysates may run through a third protein. Some entries that bind do so weakly or less than the wild type.

For the assay, the target named is yes-associated protein (YAP) (human (endogenous in MG63 and U2OS)) (UniProt P46937). The experiment in a line: co-IP; 1 mg of cell lysate (MG63 or U2OS; 50 mM Tris pH 8.0, 150 mM NaCl, 1% NP40, protease inhibitors) incubated with YAP antibody and protein A or G agarose at 4 °C overnight; blot with 14-3-3β and YAP antibodies; cells untreated or exposed to methotrexate or doxorubicin at indicated concentrations for 24 h.

For the substance 14-3-3β (from UniProt P31946 1-246), the binding entry is on record as “binds”.
